Measurements: PubChem BioAssay AID1794844 (National Center for Advancing Translational Sciences (NCATS), 2023)
Fewer than 10 of roughly 2,800 compounds were called active. Another 7% or so got no clear call; they are omitted. Calls follow the shape of the dose curve; as a rule, active = well fitted inhibition curve with a large enough effect; inconclusive = small, poorly fitted or top-dose-only effect; inactive = no such curve, though single readings can be large or run the other way. This is one part of the list.

Sequences of proteins named here, by UniProt entry; tags and fusion partners are left off. A change or cut given only in a name is not applied to a line headed by its entry.
UniProt C7C422: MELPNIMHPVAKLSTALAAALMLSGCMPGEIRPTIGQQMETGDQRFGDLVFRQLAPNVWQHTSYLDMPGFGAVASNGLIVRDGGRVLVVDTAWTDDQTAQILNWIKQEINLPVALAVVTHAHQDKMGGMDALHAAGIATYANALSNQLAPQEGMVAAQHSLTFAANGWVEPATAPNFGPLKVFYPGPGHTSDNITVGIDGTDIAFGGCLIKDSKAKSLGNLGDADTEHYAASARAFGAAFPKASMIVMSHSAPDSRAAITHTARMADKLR

target: Metallo-beta-lactamase type 2 (Klebsiella pneumoniae) (UniProt C7C422); experiment: qHTS to identify inhibitors of the New Delhi Metallo-beta-lactamase (NDM): Nitrocefin screen against the machine-based learning selections.; as to activity, negative = inhibition: % of control where 0% means no effect; conditions: NDM-1 enzyme, nitrocefin hydrolysis, absorbance 485 nm; activity, negative = inhibition: at the top concentration
Source text: Assay Submitter (PI): James Inglese Ph.D., Patricia Dranchak Ph.D., Mahesh Aitha Ph.D. Assay Development and Screening Technology Laboratory (ADST) National Center for Advancing Translational Sciences (NCATS), Rockville, MD National Institute of Health (NIH), Bethesda, Maryland The metallo-beta-lactamases (MBL) are a main antibiotic resistance mechanism evolved by bacteria. There is an urgent clinical need for MBL inhibitors to mitigate this growing threat. To support a machine-based learning study, qHTS has been used to experimentally test inhibitors identified by prediction tools.
PROTOCOL TABLE (as described by Inglese et al., 2007) SEQUENCE No. (e.g., 1, 2, 3, etc.); […] (e.g., enzyme, Incubation, Reagent, etc.); VALUE; DESCRIPTION Primary Screen 1; NDM-1; 4 uL of 3 nM enzyme [2 nM final] in 50 mM HEPES (pH 7.0), 1 uM […], 0.01% Tween20; Use BioRaptr to dispense into two sets of Aurora black, clear bottom high base 1536-well plates 2; Compounds; 23 nL; Use Pin Tool (Wako) to transfer DMSO control and library compounds in DMSO 3; Incubate; >30 min 4a; Reagent; 2 uL of 50 uM nitrocefin [16.7 uM final] to one set of assay plates 4b; Reagent; 2 uL of 150 uM meropenem [50 uM final] to second set of assay plates 5a; Incubate; 15 min 5b; Incubate; 30 min 6a; Detector; Absorbance at 485 nm (bandwidth = 5 nm, 25 flashes/well) on Tecan Infinity 6b; Detector; Absorbance at 300 nm (bandwidth = 5 nm, 25 flashes/well) on Tecan Infinity NOTES (numbers refer to sequence above) 1; Column 1 of each plate received assay buffer without enzyme and columns 2-48 received enzyme for a final assay concentration of 2 nM. 2; Control plate contained DMSO in columns 1, 2, 3, and 4. 3; Compound interaction with enzyme. 4; Nitrocefin and meropenem substrates were prepared in the same assay buffer as step 1 for a final assay concentration of 16.7 uM and 50 uM, respectively, and added to all wells across respective sets of assay plates. 5; Default reader settings were applied for absorbance read at 485 nm (nitrocefin) or 300 nm (meropenem), bandwidth = 5 nm, 25 flashes/well. References: Inglese J, Shamu CE, Guy RK. 2007. Reporting data from high-throughput screening of small-molecule libraries. Nat Chem Biol. doi:10.1038/nchembio0807-438 Yasgar A, Shinn P, Jadhav A, Auld D, Michael S, Zheng W, Austin CP, Inglese J, Simeonov A. 2008. Compound Management for Quantitative High-Throughput Screening. J Lab Autom 13:79 - 89. doi:10.1016/j.jala.2007.12.004
Potency is read from the fitted curve at half-maximal effect.

SMILES | activity, negative = inhibition | Potency
CCCCC(=O)Nc1ccc(C)cc1NC(=O)COc1cccnc1 | inactive: 2.21% | 
COc1ccc(NC(=O)NCC2CCCN(C(C)C)C2)cc1OC (stereo not drawn) | inactive: -0.609% | 
O=C1CC(C(=O)O)C2(CCN(c3cc(C(=O)O)c4ccccc4n3)CC2)N1 (stereo not drawn) | inactive: 21.9% | 
Cc1nc2c(C(=O)N3CCC(c4cc(CC(=O)O)[nH]n4)CC3)cccc2[nH]1 |  | active: 8.42 µM
COC(=O)[C@@H]1Cc2ncn(C(C)C)c2CN1S(=O)(=O)c1ccc(F)cc1 | inactive: -2.81% [at 57.5 µM] | 
NC1(Cc2cc(CN3CCN(c4ccccc4)CC3)on2)COC1 | inactive: 0.138% [at 57.5 µM] | 
COc1ccc(-n2nc(C)c([C@@H]3C=C[C@@H](NS(=O)(=O)c4cccs4)C3)c2C)cc1 | inactive: -1.36% [at 57.5 µM] | 
c1ccc(CN2CCNc3cnc(Nc4ccc(N5CCOCC5)cc4)cc3C2)cc1 | inactive: 4.37% [at 57.5 µM] | 
COc1cccc(-c2ccc(CN3CC4CCC(C3)N4c3ccc(C(F)(F)F)cc3)cc2)c1 | inactive: 0.0666% | 
Cc1ccn2c(C(=O)N3CCCC(c4[nH]ncc4-c4ccccc4)C3)nnc2n1 (stereo not drawn) | inactive: -2.87% | 
OC(c1cccc(C(F)(F)F)c1)c1nc(Nc2ccc(F)cc2F)n[nH]1 (stereo not drawn) | inactive: 6.01% [at 57.5 µM] | 
Cc1ccc(C(=O)N2CCN(c3nnc4cccc(C)n34)CC2)cc1F | inactive: -3.81% | 
Cc1oc(C(O)c2cccc(O)c2)nc1C(=O)Nc1ccccc1 (stereo not drawn) | inactive: -5.53% [at 57.5 µM] | 
Cc1oc(C(O)c2cccc(O)c2)nc1C(=O)NCc1ccccc1 (stereo not drawn) | inactive: 0.241% [at 57.5 µM] | 
c1ccc(CCN2CCNc3cc(-c4cn[nH]c4)ncc3C2)cc1 | inactive: -5.02% [at 57.5 µM] | 
c1cncc(Nc2cc3c(cn2)CN(Cc2c[nH]c4ccccc24)CCN3)c1 | inactive: 1.96% [at 57.5 µM] | 
O=C(N[C@H]1CO[C@H]2[C@@H]1OC[C@@H]2Nc1nccc(-c2cccc(F)c2)n1)c1ccccc1 | inactive: -0.478% [at 57.5 µM] | 
OCC1CCCCN1CCNc1nccc(-c2cccnc2)n1 (stereo not drawn) | inactive: 2.22% | 
OC(c1nc(Nc2ccc(Cl)cc2)n[nH]1)C1CC1 (stereo not drawn) | inactive: -1.83% [at 76.7 µM] | 
CC(C)N1C(=O)[C@@H]2[C@@H](CCN2C(=O)CCCC(=O)O)N(Cc2cccc(F)c2)C1=O | inactive: 8.66% [at 57.5 µM] | 
O=c1cc2c(nn1Cc1cccc(Br)c1)CCCCC2 | inactive: 2.9% | 
Cc1ccccc1CN1C[C@H](O)C[C@H]1c1nc(-c2cccnc2)no1 | inactive: -3.04% [at 57.5 µM] | 
O=C(c1ccccc1F)N1CCCC2(C1)C(=NC1CCCC1)NC(=O)N2c1cc(F)cc(F)c1 (stereo not drawn) | inactive: 5.78% | 
CC(=O)N1CCN([C@H]2[C@@H]3OC[C@@H](O3)[C@@H](NC(=O)Nc3cccc(C(F)(F)F)c3)[C@@H]2O)CC1 | inactive: -0.772% | 

Structural class: those above with a CF3 group.
SMILES | activity, negative = inhibition | Potency
COc1cccc(-c2ccc(CN3CC4CCC(C3)N4c3ccc(C(F)(F)F)cc3)cc2)c1 | inactive: 0.0666% | 
OC(c1cccc(C(F)(F)F)c1)c1nc(Nc2ccc(F)cc2F)n[nH]1 (stereo not drawn) | inactive: 6.01% [at 57.5 µM] | 
CC(=O)N1CCN([C@H]2[C@@H]3OC[C@@H](O3)[C@@H](NC(=O)Nc3cccc(C(F)(F)F)c3)[C@@H]2O)CC1 | inactive: -0.772% | 

Further compounds follow:

SMILES | activity, negative = inhibition | Potency
COCCN1C[C@H]2CN(C(=O)C3CC3)CCN2C1=O | inactive: -4.99% [at 76.7 µM] | 
Oc1ccc(-c2cc3c(cn2)CN(Cc2ccccc2)CCN3)cc1F | inactive: -6.16% [at 57.5 µM] | 
CC1=C[C@@H](CO)[C@H](C(C)C)C[C@H]1CC(=O)NCc1ccc(F)cc1 | inactive: 248% [at 57.5 µM] | 
CCc1ccccc1NC(=O)Cn1ccn2nc(-c3ccc(F)cc3)c(CO)c2c1=O | inactive: -5.76% | 
COc1ccc(NC(=O)N2CCOC(c3ccc(Cl)cc3)C2)c(C)c1 (stereo not drawn) | inactive: -0.195% | 
FC(F)(F)Oc1cccc(CN2CCNc3cc(Nc4cccnc4)ncc3C2)c1 | inactive: 0.502% [at 57.5 µM] | 
Cc1ncsc1CN(Cc1ccccc1)C(=O)CCn1nnnc1CN1CCOCC1 | inactive: 3.18% | 
COc1ccc(-c2cc(-c3cccc(C(N)=O)c3)cn3cncc23)cc1 | inactive: 14.3% [at 57.5 µM] | 
CC(C)CC(=O)N1CCCC(Cc2nncn2C(C)C)C1 (stereo not drawn) | inactive: 14.5% | 
CCCN(CC1CCOC1)C(=O)c1cc(Cl)ccc1F (stereo not drawn) | inactive: 2.67% | 
OCc1cc2n(n1)CCCN(Cc1cccc(OCc3ccccn3)c1)C2 | inactive: 1.29% | 
CN(CCO)CC1(O)CCCN(Cc2cccc(F)c2F)C1=O (stereo not drawn) | inactive: 25.3% | 
CN(C(=O)C1CCCC1)C1CCc2ccccc2C1 (stereo not drawn) | inactive: -7% [at 57.5 µM] | 
Cc1ccccc1-c1cnc2[nH]cc(CC(=O)NCc3cccnc3)c2c1 | inactive: 7.66% [at 57.5 µM] | 
CC(C)(C)C(=O)N1CCC2(CC1)OCC(C(=O)NC1CC1)N2C(=O)c1ccc(F)cc1 (stereo not drawn) | inactive: -0.943% | 
Cc1cccnc1C(=O)N[C@@H]1CN(C2CCOCC2)C[C@H]1CN(C)C | inactive: 0.378% | 
OC[C@@H]1O[C@H](CNCc2ccc(F)cc2)[C@H](N2CCOCC2)[C@@H]1O | inactive: -6.76% [at 57.5 µM] | 
CC(C)C1c2nccn2CCCN1C(=O)CN1CCCC1=O (stereo not drawn) | inactive: -12.7% | 
COc1ccccc1-c1[nH]nc2ncc(-c3cccc(O)c3)nc12 | inactive: 19.1% [at 57.5 µM] | 
COCCNC(=O)C[C@@H]1C[C@@H](C(C)C)[C@H](CNC(=O)CCC(=O)O)C=C1C | inactive: -1.35% [at 57.5 µM] | 
O=C1[C@@H]2C[C@@H](CN2Cc2cnc3ccccc3c2)Oc2ccccc2N1Cc1ccccc1 | inactive: -0.2% | 
O=C(NC[C@H]1O[C@@H](CC(=O)N2CCOCC2)[C@H](O)[C@@H]1O)Nc1ccc(F)cc1F | inactive: 20.5% [at 57.5 µM] | 
CCn1c(C)cc(C)c(C(=O)NCC2CCN(c3cnn(C)c(=O)c3)C2)c1=O (stereo not drawn) | inactive: 0.157% | 
COc1ccc(-c2ccc3c(c2)C(=O)N2CC[C@H](NC(=O)NC4CCCCC4)[C@H]2C(=O)N3)cc1 | inactive: -2.65% | 
